{"sequences": {"note": "Amino acid sequences for entries named in this document (tags omitted).", "UniProt P17931": "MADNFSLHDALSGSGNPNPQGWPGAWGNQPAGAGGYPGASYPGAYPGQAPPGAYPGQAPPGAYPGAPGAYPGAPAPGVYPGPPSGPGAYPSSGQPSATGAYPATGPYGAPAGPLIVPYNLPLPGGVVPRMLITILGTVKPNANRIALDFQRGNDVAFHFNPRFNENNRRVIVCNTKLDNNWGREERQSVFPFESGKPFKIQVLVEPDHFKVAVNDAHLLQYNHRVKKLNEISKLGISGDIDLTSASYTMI"}, "source": "paper PMC12482042", "about": "“Targeting galectin-3 in cancer by novel and unique inhibitors of non-carbohydrate origin” (Molecular Medicine, 2025)", "biological_target": "T1, asialo fetuin (UniProt P12763)", "T1 sequence": "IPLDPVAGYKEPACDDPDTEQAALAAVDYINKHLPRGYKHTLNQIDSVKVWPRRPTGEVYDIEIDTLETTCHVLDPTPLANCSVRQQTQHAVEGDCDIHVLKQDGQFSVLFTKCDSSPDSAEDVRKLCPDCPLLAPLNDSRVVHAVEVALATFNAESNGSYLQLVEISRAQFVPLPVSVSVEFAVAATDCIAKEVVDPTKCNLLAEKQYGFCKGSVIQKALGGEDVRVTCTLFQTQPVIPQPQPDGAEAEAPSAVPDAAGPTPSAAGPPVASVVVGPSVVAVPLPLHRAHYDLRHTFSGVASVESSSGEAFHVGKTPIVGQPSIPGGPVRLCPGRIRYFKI", "test": "ELISA; asialo-fetuin coated at 20 µg/ml (carbonate buffer pH 9.6, overnight); 5 µg/ml galectin-3 in 1% BSA in PBS without or with compound inhibitors K2/L2, 1 h, room temperature; detected with anti-galectin-3 antibody; both purified", "note": "These are yes or no findings as the source states them, for the method shown. Some entries that bind do so weakly or less than the wild type."}
{"substance": "Human recombinant galectin-3 (from UniProt P17931 1-250)", "values": [{"measurement": "binding", "value": "binds"}]}
